Series [1] can be described thus: general procedure: Boc solid-phase peptide synthesis; benzhydrylamine resin; DCC symmetrical anhydrides or DIC; HOBT active esters for Asn, Gln, His; BOP or. The following applies: whole synthesis, scale 0.1 mmol.
Series [2] is described as follows: general procedure: Boc solid-phase peptide synthesis; benzhydrylamine (BHA) resin, 100-200 ASTM mesh, Bachem; DCC symmetrical anhydrides or DIC; HOBT active esters for Asn, Gln, His; BOP or. The following applies: whole synthesis.

“Ac-[Ala^2,Glu^8,Lys^12,Nle^17,Asp^25,Leu^26,Lys^27,28,Gly^29,30,Thr^31 ]-VIP cyclo (Lys^21 →Asp^25)” gave a crude mass in series [1] of 370 mg.

On to “Ac-[Ala^8,Lys^12,Ala^16,17,19,Ala^24,Asp^25,Leu^26,Lys^27,28 ]-VIP cyclo (Lys^21 →Asp^25)”, for which the crude mass in series [1] turned out to be 240 mg.

In turn, “Ac-[Glu^8,Lys^12,Ala^16,17,19,Ala^24,Asp^25,Leu^26,Lys^27,28 ]-VIP cyclo (Lys^21 →Asp^25)” registered a crude mass in series [1] of 178 mg.

Consider “Ac-[p-F-Phe^6,2-Nal^10,Lys^12,Nle^17,Asp^25,Val^26,Thr^28,Gly^29,30,Met^31 ]-VIP (1-31)-NH2 cyclo (Lys^21 →Asp^25)”, for which the crude mass in series [2] (scale 0.1 mmol) is 345 mg.

Regarding “Ac-[Glu^8,Lys^12,Nle^17,Ala^19,Asp^25,Val^26,Thr^28,Gly^29,30,Thr^31 ]-VIP cyclo (Lys^21 →Asp^25)”, in series [1], the crude mass amounted to 440 mg.

In turn, “Ac-[Ala^2,Lys^12,Nle^17,Ala^19,Asp^25,Val^26,Thr^28 ]-VIP cyclo (Lys^21 →Asp^25)” returned a crude mass in series [2] (scale 0.1 mmol) of 172 mg.

As to “Ac-[Glu^8,Orn^12,Nle^17,Asp^25,Val^26,Thr^28 ]-VIP cyclo (Lys^21 →Asp^25)”, the crude mass in series [2] (scale 0.1 mmol) worked out at 255 mg.

“Ac-[p-F-Phe^6,Glu^8,Lys^12,Nle^17,Asp^25,Val^26,Thr^28,Gly^29,30,Thr^31 ]-VIP cyclo (Lys^21 →Asp^25)” displayed a crude mass in series [1] of 280 mg.

“Ac-[Asn^8,Asp^9,Lys^12,Nle^17,Val^26,Thr^28 ]-VIP cyclo (Asp^9 →Lys^12)” showed a crude mass in series [2] (scale 0.122 mmol) of 485 mg.

In turn, “Ac-[Lys^12,Nle^17,Ala^19,Asp^25,Leu^26,Lys^27,28,Ala^29-31 ]-VIP cyclo (Lys^21 →Asp^25)” displayed a crude mass in series [1] of 360 mg.

Consider “Ac-[p-F-Phe^6,Lys^12,Nle^17,Ala^19,Asp^25,Val^26,Thr^28,Gly^29,30,Cys(Acm)^31 ]-VIP (1-31)-NH2 cyclo (Lys^21 →Asp^25)”, for which the crude mass in series [2] (scale 0.1 mmol) worked out at 268 mg.

For “Ac-[Lys^12,Nle^17,Ala^19,Asp^25,Val^26,Thr^28 ]-VIP cyclo (Lys^21 →Asp^25)”, the crude mass in series [2] (scale 0.1 mmol) was 304 mg.

“Ac-[Glu^8,Lys^12,Nle^17,Asp^25,Leu^26,Lys^27,28,Gly^29,30,Thr^31 ]-VIP cyclo (Lys^21 →Asp^25)”: the crude mass in series [1] stood at 378 mg.

In the case of “Ac-[Lys^12,Nle^17,Asp^24,Val^26,Thr^28 ]-VIP cyclo (Lys^20 →Asp^24)”, the crude mass in series [2] (scale 0.1 mmol) was 265 mg.
